According to patent US10752588B2 (The Broad Institute, Inc., priority 2014, dated 2020):
Some entries of the source have several records that differ or are many. They are shown here; other results are not. The source may hold further records. Values given together seem to repeat one measurement on other runs, samples or individuals.

Experiment: Pharmacokinetic studies on mice, plasma and brain
Conditions: i.p., 10 mg/kg single dose, male C57BL/6 mice

SMILES: COc1cccc(C(NC(=O)C2CCN(CCOc3ccccc3)CC2)c2ccccn2)c1 (single isomer, unassigned)
- AUCINF (brain): 3.03 hr*μmol/L and 1347.55 μg/L*hr
- AUClast (brain): 3.00 hr*μmol/L and 1335.28 μg/L*hr
- Cmax (brain): 1.66 µM and 740.63 μg/L
- AUCINF (plasma): 3.39 hr*μmol/L and 1507.16 μg/L*hr
- AUClast (plasma): 3.31 hr*μmol/L and 1470.78 μg/L*hr
- CL (plasma): 2.96 mg/(hr*μmol/L)/kg and 6.64 L/hr/kg
- Cmax (plasma): 1.59 µM and 709.91 μg/L
- Vss (plasma): 6.89 mg/(μmol/L)/kg and 15.48 L/kg
